This passage reports CC50 results from patent US20230218558A1, “NOVEL THERAPEUTIC USE OF PLEUROMUTILINS” (priority 2020, published 2023).

Read-outs that look alike come from different tables or passages of the source. Some results are limits rather than exact numbers.

For the data set, the system named is HEp2 cells. Put plainly: Cell viability of uninfected drug control wells, HEp2 cells, XTT. The conditions noted are these: read-out: TC50.

Turning to `Cc1ccc(CCCO)c(NCc2ccc3nc(NCCCN4CCOCC4)n(Cc4nc(C)ccc4O)c3c2)c1` [TMC353121], the CC50 is, setting by setting: (Example 3, uninfected HEp2 cells, 6 days) more than 100 nM; (Example 4, MOI 0.0004) more than 100 nM; (Example 4, MOI 0.0008) more than 100 nM; (Example 4, MOI 0.001) more than 100 nM; (Example 4, MOI 0.003) more than 100 nM; (Example 5, HEp2 cells, RSV ALONG experiment) more than 1000 nM. Also, the CC50 (Example 5, HEp2 cells, RSV B18537 experiment) is more than 1000 nM.
